Data on 60 molecules can be found in PubChem BioAssay AID445 (National Center for Advancing Translational Sciences (NCATS), 2006).

The structures appear in SMILES notation. The list shows a part of the results. Shown are side measurements of this screen, not its main read-out; they come without a call. Compounds called inactive in the main read-out are mostly missing here. Words in brackets tell the shape of the fitted curve; partial curves, single points and poor fits give uncertain potencies.

For orientation: AC50 means the concentration at which the activity in the assay is half-maximal.

The assay can be described thus: IkB Signaling. The settings on record: ABC-DLBCL IkBa-CBG/CBR dual luciferase ratio (green luciferase fused to IkBa over red control in OCI-Ly3 lymphoma cells), 4 h. An outline of the steps: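 In this assay, an IκBα–CBG68 fusion accumulates when IKK-driven degradation is blocked; native CBR normalizes for cell number. OCI-Ly3 cells were treated 4 h with compound and doxycycline, then green and red light read after Chroma-Glo addition.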
[1] abbreviates: measured here: control luc red channel unless noted.
[2] abbreviates: measured here: IkB-luc green channel.
[3] abbreviates: measured here: control luc red channel.

In the case of `O=C(Nc1cccc(F)c1)c1ccc(S(=O)(=O)N2CCCC2)cc1`, under setting [1], the AC50 is 10 µM [falling, partial curve].
As for `CCC(CC)C(=O)Nc1ccc2nc(SCC(=O)N3CCOCC3)sc2c1`, the AC50 under setting [1] is 0.316 µM [falling, partial curve].
As for `Cc1ccccc1C(=O)Nc1sc2c(c1C(=O)N1CCCCC1)CCC(C(C)(C)C)C2` (centres undefined), the AC50 under setting [1] is 10 µM [falling, partial curve].
In the case of `O=C(NCc1ccc(Cl)cc1)C1CCN(S(=O)(=O)c2ccc(F)cc2)CC1`, the AC50 under setting [1] is 15.8 µM [falling, partial curve].
On to `COc1ccccc1NC(=O)CSc1nnc(Cc2cc(=O)[nH]c(=O)[nH]2)n1-c1ccccc1`, for which the AC50 under setting [1] is 20 µM [falling, partial curve].
In the case of `CCC1CCCCN1S(=O)(=O)c1ccc2c(c1)CCN2C(=O)C1CCC1` (centres undefined), the AC50 under setting [1] is 20 µM [falling, single point].
For the molecule `COc1ccccc1N1CCN(c2ncc3c(n2)CCN(Cc2ccc(C)s2)C3)CC1`, the AC50 under setting [1] was 31.6 µM [falling, single point].
As for `O=C(Nc1nc(-c2ccccn2)cs1)c1ccc(S(=O)(=O)N2CCCCC2)cc1`, the AC50 under setting [1] was 10 µM [falling, partial curve].
Regarding `CCn1c(=O)c2sccc2n2c(CCCC(=O)N3CCN(c4cc(C)ccc4C)CC3)nnc12`, under setting [1], the AC50 was 12.6 µM [falling, partial curve].
Consider `Cc1ccn2c(=O)c(C(=O)NCCc3ccc(S(N)(=O)=O)cc3)c(O)nc2c1`, for which the AC50 under setting [1] is 0.1 µM [rising, partial curve, poor fit].
With `Cc1[nH]c2ccc(C(=O)OCCN(C)C)cc2c1C`, under setting [1], the AC50 is 100 nM [falling, partial curve, poor fit] [measured here: IkB-luc green channel].
Same read-out and setting: the figure for `COc1ccc(N2C(=O)CSC23C(=O)N(CC(=O)NCc2ccccc2)c2ccccc23)cc1` (centres undefined) is 0.251 µM [falling, full curve, poor fit].
With `O=c1oc(-c2ccco2)nc2c1cnn2-c1ccccc1`, the AC50 was 3.16 µM [falling, partial curve] under setting [2] and 15.8 µM [falling, partial curve] under setting [3].
On to `COc1cccc(NC(=O)C2CC(=O)N(C)C(=Nc3cccc(F)c3)S2)c1` (centres undefined), for which the half-maximal activity concentration (AC50) under setting [1] is 25.1 µM [falling, partial curve].
On to `CS(=O)(=O)NCCc1csc2nc(-c3ccccc3)nn12`, for which the AC50 under setting [1] was 3.98 µM [rising, single point].
For `COc1cccc(NC(=O)N(Cc2cn(C)c3ccccc23)C2CCCCC2)c1`, the AC50 under setting [1] was 7.94 µM [falling, full curve].
Same read-out and setting: as for `Cc1ccc(C)c(N2CCN(C(=O)c3ccc(CS(=O)(=O)c4ccccc4C)o3)CC2)c1`, the figure is 7.94 µM [falling, partial curve].
As to `CCOc1ccc(NC(=O)Cn2c(=O)n(Cc3ccccc3)c(=O)c3sc4ccccc4c32)cc1`, the AC50 under setting [1] was 3.16 µM [rising, single point].
As to `C=C(C)COc1ccc(-c2n[nH]c(C)c2Oc2ccccc2OC)c(O)c1`, under setting [1], the AC50 is 25.1 µM [falling, single point].
As for `Cc1cc(C)cc(NC(=O)CN2C(=O)CSc3ccc(S(=O)(=O)N4CCCC4)cc32)c1`, under setting [1], the AC50 was 25.1 µM [falling, single point].
On the same count and under the same terms, the figure for `CCOc1ccc(NC(=O)c2c(NC(=O)c3cccc(C)c3)sc3c2CCC3)cc1` is 12.6 µM [falling, partial curve]; for `O=C(NCC1CCN(Cc2cccc(F)c2)CC1)c1cc2ccc3cccnc3c2[nH]1` it is 15.8 µM [falling, partial curve].
For the molecule `COc1ccccc1N1CCN(S(=O)(=O)CCNC(=O)COc2ccc(F)cc2)CC1`, the AC50 under setting [1] is 10 µM [falling, partial curve].
On to `CCc1ccc(NC(=O)CC2C(=O)N(c3ccc(OC)cc3)C(=O)N2Cc2ccc(OC)cc2)cc1` (centres undefined), for which the AC50 under setting [1] was 31.6 µM [falling, single point].
Turning to `Cc1cc(Nc2ccccc2)n(-c2nc3ccccc3[nH]2)n1`, under setting [1], the AC50 was 15.8 µM [falling, partial curve].
For `Cc1csc2nc(CSc3nc4ccccc4o3)c(Br)n12`, under setting [1], the AC50 is 39.8 µM [falling, single point].
As for `COc1ccc(CCNc2ncnc3c2c(-c2ccccc2)cn3-c2cccc(Cl)c2)cc1OC`, under setting [1], the AC50 is 12.6 µM [falling, partial curve].
Same read-out and setting: as for `COC(=O)c1sccc1NC(=O)c1ccncc1`, the figure is 12.6 µM [rising, partial curve]; as for `CCOc1ccc(CNC(=O)CCn2c(=O)c3cccn3c3cccnc32)cc1`, 1 µM [rising, full curve]; as for `O=C(CSc1nc(=O)n(Cc2ccco2)c2c1CCC2)NCc1ccccc1Cl`, 25.1 µM [falling, single point].
On the same count and under the same terms, as for `CCOC(=O)/C=C(\C)Sc1cc(=O)oc2ccccc12`, the figure is 7.94 µM [falling, partial curve]; as for `O=C(C1CCCN(S(=O)(=O)c2ccc(Br)s2)C1)N1CCCCCC1` (centres undefined), 10 µM [falling, partial curve].
Turning to `COc1ccccc1CNC(=O)CCCn1nc(C)c2c(C)n(-c3ccc(C)cc3)nc2c1=O`, the AC50 under setting [1] was 12.6 µM [falling, partial curve].
On the same count and under the same terms, the figure for `COC(=O)c1c(SC)nc2ccccc2c1OCc1ccc(C)cc1C` is 3.98 µM [falling, full curve, poor fit]; for `O=C(CSc1nnc2scc(-c3ccc(Cl)cc3)n12)Nc1ccccc1F` it is 3.16 µM [falling, partial curve].
With `Cc1ccc2onc(CC(=O)Nc3cc(F)ccc3F)c2c1`, the AC50 under setting [1] is 39.8 µM [falling, single point].
Consider `COc1ccc(C(=O)Nc2ccc3c(c2)N(C2CCCC2)C(=O)c2ccccc2S3)cc1OC`, for which the AC50 under setting [1] is 12.6 µM [falling, partial curve].
For `CC(CNC(=O)c1ccc(CSc2nc3ccncc3n2Cc2cccc(F)c2)cc1)c1ccccc1` (centres undefined), under setting [1], the concentration at half-maximal activity (AC50) was 25.1 µM [falling, partial curve].
As for `Cc1ccc(C)c(-c2nn(CC(=O)Nc3cc(F)ccc3F)c(=O)c3c2CCCC3)c1`, under setting [1], the AC50 was 15.8 µM [falling, partial curve].
On the same count and under the same terms, the figure for `COc1cc(C(=O)Nc2ccc(Cl)c(-c3nc4ncccc4o3)c2)cc(OC)c1OC` is 15.8 µM [falling, partial curve, poor fit]; for `O=C(Cn1cc(S(=O)(=O)N2CCN(c3ccccc3F)CC2)c2ccccc2c1=O)Nc1cccc(C(F)(F)F)c1` it is 3.98 µM [falling, partial curve]; for `Cc1cccc2c1-c1sc(C(=O)N3CCN(c4ccc(F)cc4)CC3)cc1CO2` it is 31.6 µM [falling, single point].
As for `COc1ccccc1CNC(=O)CSc1nc(-c2ccc(OC)c(OC)c2)cc(C(F)(F)F)n1`, under setting [1], the AC50 is 25.1 µM [falling, single point].
`O=C(NCC(c1cccs1)S(=O)(=O)c1cccs1)c1ccc(F)c(F)c1` (centres undefined): under setting [1], the AC50 is 39.8 µM [falling, single point].
Take `COc1ccc(C(=O)Nc2nnc(-c3ccccc3)o2)cc1OC`: the AC50 under setting [2] is 39.8 µM [rising, single point] and the AC50 under setting [3] was 20 µM [falling, partial curve].
With `C[C@@H](C(=O)O)c1ccc(C[C@@H]2CCCC2=O)cc1`, under setting [1], the AC50 is 1 µM [rising, full curve, poor fit] [measured here: IkB-luc green channel].
As for `COC(=O)c1sccc1S(=O)(=O)N(CC(=O)Nc1cc(C)ccc1C)c1ccc(C)c(C)c1`, under setting [1], the AC50 is 10 µM [falling, partial curve].
Consider `CCC(C)NC(=O)c1ccc2c(c1)sc1nc(-c3ccc(OC)cc3)cn12` (centres undefined), for which the AC50 under setting [1] is 15.8 µM [falling, partial curve].
Same read-out and setting: as for `O=C(CSc1nc2c([nH]c3ccccc32)c(=O)n1-c1cccc(Cl)c1)N1CCCC1`, the figure is 0.794 µM [rising, full curve].
`COC(=O)C1=C(C)NC(C)=C(C(=O)OCCSc2ccccc2)[C@@H]1C`: the AC50 under setting [1] was 31.6 µM [falling, partial curve].
Take `CCn1c(SCC(=O)Nc2nc(-c3ccccc3)cs2)nnc1-c1ccccc1O`: the AC50 runs as follows: under setting [2], 15.8 µM [falling, partial curve, poor fit]; under setting [3], 12.6 µM [falling, partial curve].
On to `FC(F)(F)c1cc(-c2ccc3c(c2)OCO3)nc(NCc2ccco2)n1`, for which the concentration at half-maximal activity (AC50) is, setting by setting: under setting [2], 1.26 µM [rising, full curve]; under setting [3], 7.94 µM [falling, full curve].
`Cc1ccc(N2CCN(S(=O)(=O)c3nnc(NC(=O)c4ccccc4)s3)CC2)cc1`: the AC50 under setting [1] was 2 µM [rising, partial curve].
Same read-out and setting: as for `Nc1ccccc1-c1nnc(SCc2ccccc2F)[nH]c1=O`, the figure is 12.6 µM [falling, partial curve].
Consider `Cc1ccccc1Cn1nc(C)c(NC(=O)c2noc3c2CCc2ccccc2-3)c1C`, for which, under setting [1], the AC50 is 10 µM [falling, partial curve].
On the same count and under the same terms, the figure for `CCCCNc1nc2c(S(=O)(=O)c3ccc(C)cc3)nnn2c2ccsc12` is 0.0631 µM [rising, full curve]; for `COc1ccc2[nH]c(=O)c(CN(C3CCCCC3)C(c3nnnn3Cc3ccco3)C(C)C)cc2c1` (centres undefined) it is 6.31 µM [rising, full curve] [measured here: IkB-luc green channel]; for `O=C(Nc1ccccc1C(=O)OCc1cc(=O)n2nc(C3CC3)sc2n1)c1ccc(Cl)cc1` it is 0.251 µM [falling, full curve].
Consider `Cc1ccc(C)c(N2CCN(c3nc4ccc(C)cc4nc3-n3nc(C)cc3C)CC2)c1`, for which, under setting [1], the AC50 was 39.8 µM [falling, single point].
Consider `CCOCCc1nnc(NC(=O)C(=O)c2cc(C)n(-c3ccc(C)c(C)c3)c2C)s1`, for which, under setting [1], the half-maximal activity concentration (AC50) is 12.6 µM [falling, partial curve].
